# This is one part of the list.
# B1: LysMD3 (Homo sapiens), Q7Z3D4 (protein)
# chain: MAGRHQNRSFPLPGVQSSGQVHAFGNCSDSDILEEDAEVYELRSRGKEKVRRSTSRDRLDDIIVLTKDIQEGDTLNAIALQYCCTVADIKRVNNLISDQDFFALRSIKIPVKKFSSLTETLCPPKGRQTSRHSSVQYSSEQQEILPANDSLAYSDSAGSFLKEVDRDIEQIVKCTDNKRENLNEVVSALTAQQMRFEPDNKNTQRKDPYYGADWGIG
# Tests used:
# Assay in all cases: glycan array binding signal (z-score within array); higher = stronger binding
# Details in all cases: glycan notation: IUPAC condensed, linker removed
# [1] = target: Gal(b1-4)GlcNAc(b1-3)Gal(b1-4)GlcNAc(b1-2)Man(a1-3)[Gal(b1-4)GlcNAc(b1-3)Gal(b1-4)GlcNAc(b1-2)Man(a1-6)]Man(b1-4)GlcNAc(b1-4)[Fuc(a1-6)]GlcNAc
# Method in brief: (§1)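 Glycan array data were curated from 3228 arrays in the Consortium for Functional Glycomics database and kept only where the protein sequence was available. Glycan names were converted to IUPAC-condensed notation, and columns mapping to the same glycan were averaged. The binding signal is a within-array Z-score, averaged across arrays of the same protein sequence at different concentrations or buffers and across linkers. Negative Z-scores can be read as non-binding.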
# [2] = target: Gal(b1-4)GlcNAc(b1-3)Gal(b1-4)GlcNAc(b1-2)[Gal(b1-4)GlcNAc(b1-3)Gal(b1-4)GlcNAc(b1-6)]Man(a1-6)[Gal(b1-4)GlcNAc(b1-3)Gal(b1-4)GlcNAc(b1-2)Man(a1-3)]Man(b1-4)GlcNAc(b1-4)GlcNAc
# Method in brief: as §1
# [3] = target: Gal(b1-4)GlcNAc(b1-3)Gal(b1-4)GlcNAc(b1-2)[Gal(b1-4)GlcNAc(b1-3)Gal(b1-4)GlcNAc(b1-6)]Man(a1-6)[Gal(b1-4)GlcNAc(b1-3)Gal(b1-4)GlcNAc(b1-2)Man(a1-3)]Man(b1-4)GlcNAc(b1-4)[Fuc(a1-6)]GlcNAc
# Method in brief: as §1
# [4] = target: Gal(b1-4)GlcNAc(b1-3)Gal(b1-4)GlcNAc(b1-3)Gal(b1-4)GlcNAc
# Method in brief: as §1
# [5] = target: Gal(b1-4)GlcNAc(b1-3)Gal(b1-4)GlcNAc(b1-3)Gal(b1-4)GlcNAc(b1-2)Man(a1-3)[Gal(b1-4)GlcNAc(b1-3)Gal(b1-4)GlcNAc(b1-3)Gal(b1-4)GlcNAc(b1-2)Man(a1-6)]Man(b1-4)GlcNAc(b1-4)GlcNAc
# Method in brief: as §1
# [6] = target: Gal(b1-4)GlcNAc(b1-3)Gal(b1-4)GlcNAc(b1-3)Gal(b1-4)GlcNAc(b1-2)Man(a1-3)[Gal(b1-4)GlcNAc(b1-3)Gal(b1-4)GlcNAc(b1-3)Gal(b1-4)GlcNAc(b1-2)Man(a1-6)]Man(b1-4)GlcNAc(b1-4)[Fuc(a1-6)]GlcNAc
# Method in brief: as §1
# [7] = target: Gal(b1-4)GlcNAc(b1-3)Gal(b1-4)GlcNAc(b1-3)Gal(b1-4)GlcNAc(b1-2)[Gal(b1-4)GlcNAc(b1-3)Gal(b1-4)GlcNAc(b1-3)Gal(b1-4)GlcNAc(b1-6)]Man(a1-6)[Gal(b1-4)GlcNAc(b1-3)Gal(b1-4)GlcNAc(b1-3)Gal(b1-4)GlcNAc(b1-2)Man(a1-3)]Man(b1-4)GlcNAc(b1-4)[Fuc(a1-6)]GlcNAc
# Method in brief: as §1
# [8] = target: Gal(b1-4)GlcNAc(b1-3)Gal(b1-4)GlcNAc(b1-3)Gal(b1-4)GlcNAc(b1-3)Gal(b1-4)GlcNAc(b1-2)Man(a1-3)[Gal(b1-4)GlcNAc(b1-3)Gal(b1-4)GlcNAc(b1-3)Gal(b1-4)GlcNAc(b1-3)Gal(b1-4)GlcNAc(b1-2)Man(a1-6)]Man(b1-4)GlcNAc(b1-4)GlcNAc
# Method in brief: as §1
# [9] = target: Gal(b1-4)GlcNAc(b1-3)Gal(b1-4)GlcNAc(b1-3)Gal(b1-4)GlcNAc(b1-3)Gal(b1-4)GlcNAc(b1-2)Man(a1-3)[Gal(b1-4)GlcNAc(b1-3)Gal(b1-4)GlcNAc(b1-3)Gal(b1-4)GlcNAc(b1-3)Gal(b1-4)GlcNAc(b1-2)Man(a1-6)]Man(b1-4)GlcNAc(b1-4)[Fuc(a1-6)]GlcNAc
# Method in brief: as §1
# [10] = target: Gal(b1-4)GlcNAc(b1-3)Gal(b1-4)GlcNAc(b1-3)Gal(b1-4)GlcNAc(b1-3)Gal(b1-4)GlcNAc(b1-2)[Gal(b1-4)GlcNAc(b1-3)Gal(b1-4)GlcNAc(b1-3)Gal(b1-4)GlcNAc(b1-3)Gal(b1-4)GlcNAc(b1-6)]Man(a1-6)[Gal(b1-4)GlcNAc(b1-3)Gal(b1-4)GlcNAc(b1-3)Gal(b1-4)GlcNAc(b1-3)Gal(b1-4)GlcNAc(b1-2)Man(a1-3)]Man(b1-4)GlcNAc(b1-4)[Fuc(a1-6)]GlcNAc
# Method in brief: as §1
# [11] = target: Gal(b1-4)GlcNAc(b1-3)Gal(b1-4)GlcNAc(b1-3)Gal(b1-4)GlcNAc(b1-3)Gal(b1-4)GlcNAc(b1-3)Gal(b1-4)GlcNAc(b1-2)Man(a1-3)[Gal(b1-4)GlcNAc(b1-3)Gal(b1-4)GlcNAc(b1-3)Gal(b1-4)GlcNAc(b1-3)Gal(b1-4)GlcNAc(b1-3)Gal(b1-4)GlcNAc(b1-2)Man(a1-6)]Man(b1-4)GlcNAc(b1-4)GlcNAc
# Method in brief: as §1
# [12] = target: Gal(b1-4)GlcNAc(b1-3)Gal(b1-4)GlcNAc(b1-3)Gal(b1-4)GlcNAc(b1-3)Gal(b1-4)GlcNAc(b1-3)Gal(b1-4)GlcNAc(b1-2)Man(a1-3)[Gal(b1-4)GlcNAc(b1-3)Gal(b1-4)GlcNAc(b1-3)Gal(b1-4)GlcNAc(b1-3)Gal(b1-4)GlcNAc(b1-3)Gal(b1-4)GlcNAc(b1-2)Man(a1-6)]Man(b1-4)GlcNAc(b1-4)[Fuc(a1-6)]GlcNAc
# Method in brief: as §1
# [13] = target: Gal(b1-4)GlcNAc(b1-3)Gal(b1-4)GlcNAc(b1-3)Gal(b1-4)GlcNAc(b1-3)Gal(b1-4)GlcNAc(b1-3)Gal(b1-4)GlcNAc(b1-2)[Gal(b1-4)GlcNAc(b1-3)Gal(b1-4)GlcNAc(b1-3)Gal(b1-4)GlcNAc(b1-3)Gal(b1-4)GlcNAc(b1-3)Gal(b1-4)GlcNAc(b1-6)]Man(a1-6)[Gal(b1-4)GlcNAc(b1-3)Gal(b1-4)GlcNAc(b1-3)Gal(b1-4)GlcNAc(b1-3)Gal(b1-4)GlcNAc(b1-3)Gal(b1-4)GlcNAc(b1-2)Man(a1-3)]Man(b1-4)GlcNAc(b1-4)[Fuc(a1-6)]GlcNAc
# Method in brief: as §1
# [14] = target: Gal(b1-4)GlcNAc(b1-3)Gal(b1-4)GlcNAc(b1-3)Gal(b1-4)GlcNAc(b1-3)Gal(b1-4)GlcNAc(b1-3)Gal(b1-4)GlcNAc(b1-3)Gal(b1-4)GlcNAc(b1-2)Man(a1-3)[Gal(b1-4)GlcNAc(b1-3)Gal(b1-4)GlcNAc(b1-3)Gal(b1-4)GlcNAc(b1-3)Gal(b1-4)GlcNAc(b1-3)Gal(b1-4)GlcNAc(b1-3)Gal(b1-4)GlcNAc(b1-2)Man(a1-6)]Man(b1-4)GlcNAc(b1-4)GlcNAc
# Method in brief: as §1
# [15] = target: Gal(b1-4)GlcNAc(b1-3)Gal(b1-4)GlcNAc(b1-3)GalNAc
# Method in brief: as §1
# [16] = target: Gal(b1-4)GlcNAc(b1-3)Gal(b1-4)GlcNAc(b1-3)[Gal(b1-4)GlcNAc(b1-3)Gal(b1-4)GlcNAc(b1-6)]GalNAc
# Method in brief: as §1
# [17] = target: Gal(b1-4)GlcNAc(b1-3)Gal(b1-4)GlcNAc(b1-6)[Gal(b1-3)]GalNAc
# Method in brief: as §1
# [18] = target: Gal(b1-4)GlcNAc(b1-3)Gal(b1-4)[Fuc(a1-3)]GlcNAc(b1-3)Gal(b1-4)[Fuc(a1-3)]GlcNAc
# Method in brief: as §1
# [19] = target: Gal(b1-4)GlcNAc(b1-3)GalNAc
# Method in brief: as §1
# [20] = target: Gal(b1-4)GlcNAc(b1-3)[Fuc(a1-3)GlcNAc(b1-6)]Gal(b1-4)Glc
# Method in brief: as §1
# [21] = target: Gal(b1-4)GlcNAc(b1-3)[Gal(b1-4)GlcNAc(b1-6)]Gal(b1-4)GlcNAc
# Method in brief: as §1
# [22] = target: Gal(b1-4)GlcNAc(b1-3)[GlcNAc(b1-6)]Gal(b1-4)GlcNAc
# Method in brief: as §1
# [23] = target: Gal(b1-4)GlcNAc(b1-6)Gal(b1-4)GlcNAc
# Method in brief: as §1
# [24] = target: Gal(b1-4)GlcNAc(b1-6)GalNAc
# Method in brief: as §1
# [25] = target: Gal(b1-4)GlcNAc(b1-6)[Gal(b1-3)]GalNAc
# Method in brief: as §1
# [26] = target: Gal(b1-4)GlcNAc(b1-6)[Gal(b1-4)GlcNAc(b1-3)]GalNAc
# Method in brief: as §1
# Gal(b1-4)GlcNAc6P = target: Gal(b1-4)GlcNAc6P
# Method in brief: as §1
# Gal(b1-6)Gal = target: Gal(b1-6)Gal
# Method in brief: as §1
# Gal3S(b1-3)GalNAc = target: Gal3S(b1-3)GalNAc
# Method in brief: as §1
# Gal3S(b1-3)GlcNAc = target: Gal3S(b1-3)GlcNAc
# Method in brief: as §1
# [27] = target: Gal3S(b1-3)[Fuc(a1-4)]GlcNAc
# Method in brief: as §1
# Gal3S(b1-4)Glc = target: Gal3S(b1-4)Glc
# Method in brief: as §1
# Gal3S(b1-4)Glc6S = target: Gal3S(b1-4)Glc6S
# Method in brief: as §1
# Gal3S(b1-4)GlcNAc = target: Gal3S(b1-4)GlcNAc
# Method in brief: as §1
# [28] = target: Gal3S(b1-4)[Fuc(a1-3)]Glc6S
# Method in brief: as §1
# [29] = target: Gal3S(b1-4)[Fuc(a1-3)]GlcNAc
# Method in brief: as §1
# [30] = target: Gal3S(b1-4)[Fuc(a1-3)]GlcNAc6S
# Method in brief: as §1
# Gal3S4S(b1-4)GlcNAc = target: Gal3S4S(b1-4)GlcNAc
# Method in brief: as §1
# Gal3S6S(b1-4)GlcNAc = target: Gal3S6S(b1-4)GlcNAc
# Method in brief: as §1
# Gal3S6S(b1-4)GlcNAc6S = target: Gal3S6S(b1-4)GlcNAc6S
# Method in brief: as §1
# Gal4S(b1-4)GlcNAc = target: Gal4S(b1-4)GlcNAc
# Method in brief: as §1
# Gal4S6S(b1-4)GlcNAc = target: Gal4S6S(b1-4)GlcNAc
# Method in brief: as §1
# Gal6P(b1-4)GlcNAc = target: Gal6P(b1-4)GlcNAc
# Method in brief: as §1
# Gal6S(b1-3)GlcNAc = target: Gal6S(b1-3)GlcNAc
# Method in brief: as §1
# Gal6S(b1-3)GlcNAc6S = target: Gal6S(b1-3)GlcNAc6S
# Method in brief: as §1
binder,measurement,setting,value
B1,glycan array binding signal (z-score),[1],0.897
same,glycan array binding signal (z-score),[2],-0.473
same,glycan array binding signal (z-score),[3],1.56
same,glycan array binding signal (z-score),[4],-0.65
same,glycan array binding signal (z-score),[5],1.65
same,glycan array binding signal (z-score),[6],0.606
same,glycan array binding signal (z-score),[7],0.982
same,glycan array binding signal (z-score),[8],1.02
same,glycan array binding signal (z-score),[9],0.94
same,glycan array binding signal (z-score),[10],-0.101
same,glycan array binding signal (z-score),[11],0.305
same,glycan array binding signal (z-score),[12],0.267
same,glycan array binding signal (z-score),[13],0.022
same,glycan array binding signal (z-score),[14],-0.094
same,glycan array binding signal (z-score),[15],-0.073
same,glycan array binding signal (z-score),[16],-0.389
same,glycan array binding signal (z-score),[17],-0.539
same,glycan array binding signal (z-score),[18],0.119
same,glycan array binding signal (z-score),[19],0.375
same,glycan array binding signal (z-score),[20],0.442
same,glycan array binding signal (z-score),[21],-0.668
same,glycan array binding signal (z-score),[22],-0.966
same,glycan array binding signal (z-score),[23],1.56
same,glycan array binding signal (z-score),[24],0.988
same,glycan array binding signal (z-score),[25],-0.769
same,glycan array binding signal (z-score),[26],0.69
same,glycan array binding signal (z-score),Gal(b1-4)GlcNAc6P,-0.724
same,glycan array binding signal (z-score),Gal(b1-6)Gal,-0.368
same,glycan array binding signal (z-score),Gal3S(b1-3)GalNAc,-0.094
same,glycan array binding signal (z-score),Gal3S(b1-3)GlcNAc,0.323
same,glycan array binding signal (z-score),[27],0.577
same,glycan array binding signal (z-score),Gal3S(b1-4)Glc,0.287
same,glycan array binding signal (z-score),Gal3S(b1-4)Glc6S,-0.841
same,glycan array binding signal (z-score),Gal3S(b1-4)GlcNAc,-0.699
same,glycan array binding signal (z-score),[28],0.778
same,glycan array binding signal (z-score),[29],0.294
same,glycan array binding signal (z-score),[30],-0.672
same,glycan array binding signal (z-score),Gal3S4S(b1-4)GlcNAc,-0.834
same,glycan array binding signal (z-score),Gal3S6S(b1-4)GlcNAc,1.07
same,glycan array binding signal (z-score),Gal3S6S(b1-4)GlcNAc6S,0.302
same,glycan array binding signal (z-score),Gal4S(b1-4)GlcNAc,-0.528
same,glycan array binding signal (z-score),Gal4S6S(b1-4)GlcNAc,-0.42
same,glycan array binding signal (z-score),Gal6P(b1-4)GlcNAc,0.452
same,glycan array binding signal (z-score),Gal6S(b1-3)GlcNAc,-0.074
same,glycan array binding signal (z-score),Gal6S(b1-3)GlcNAc6S,-1.61

# Nothing new here: an excerpt of the list.
binder,measurement,setting,value
B1,glycan array binding signal (z-score),Gal3S(b1-3)GalNAc,-0.094
same,glycan array binding signal (z-score),Gal3S(b1-3)GlcNAc,0.323

# From the supplement of paper PMC8728848
